# PubChem BioAssay AID2685 (National Center for Advancing Translational Sciences (NCATS), 2010)
# Some of the results follow. Further columns of the screen follow, without active or inactive calls. The list favours compounds with an active or inconclusive main result. The note in brackets gives the kind of curve behind each potency; many fits are weak.
# Experiment: qHTS Assay for Lipid Storage Modulators in Drosophila S3 Cells;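 for cell number change: cells counted by Cell Tracker Red CMTPX staining in the red channel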
# Conditions: BODIPY lipid droplet fluorescence, 18-24 h; for cell number change: measured here: cell count max response, cells fed with added oleic acid
# How it was run: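 Laser-scanning cytometry quantifies lipid droplet accumulation (500–530 nm total intensity; droplet/cell object ratio) in oleic acid-fed (400 uM added) Drosophila S3 cells treated with a concentration series. 20 uM Triacsin C defined 100% inhibition.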
# [1] = measured here: cell number channel AC50, cells fed with added oleic acid
# [2] = measured here: lipid fluorescence (Fed channel) AC50, cells fed with added oleic acid
SMILES,cell number change,AC50 [1],AC50 [2]
CCc1cc2c(cc3c(=O)n(CC(=O)NCCCN4CC(C)CC(C)C4)ncn32)s1 (centres undefined),-60.8%,"6.51 µM [falling, partial curve, poor fit]","7.31 µM [falling, partial curve, poor fit]"
COC(=O)C1(C)NC(c2cccc(C)c2)C2C(=O)N(c3ccc(F)cc3)C(=O)C21 (centres undefined),20.7%,"0.00517 µM [rising, full curve, poor fit]","0.146 µM [rising, full curve, poor fit]"
COc1ccc(CCN2CCCC(CN(C)C(=O)c3ccoc3C)C2)cc1 (centres undefined),51.1%,"20.6 µM [rising, partial curve, poor fit]","5.17 µM [rising, full curve]"
Cc1c(NS(=O)(=O)c2ccc3c(c2)NC(=O)CC(=O)N3)cccc1[N+](=O)[O-],-11.8%,,
Cc1cc(C)c(S(C)(=O)=O)c(Oc2cccc(Cl)c2)n1,39%,,
O=C(Nc1cccc(Cl)c1)c1ccc(S(=O)(=O)NCC2CCCO2)cc1 (centres undefined),18.4%,,
COc1ccc(S(=O)(=O)N2CCOCC2)cc1NC(=O)CC1CC2CCC1C2 (centres undefined),21.1%,,"1.64 µM [rising, full curve]"
Cc1cccc2c(C(=O)Nn3cnnc3)cc(-c3ccccc3Cl)nc12,121%,"29.1 µM [rising, single point]","29.1 µM [rising, single point]"
Cc1cc(NC(=O)CSc2nnc(-c3cccnc3)n2C)no1,35%,"14.6 µM [rising, single point]",
CCc1cc(=O)oc2c(C)c(OCC(=O)NCCCn3ccnc3)ccc12,23.5%,"0.0731 µM [rising, full curve, poor fit]",
COc1nnc(-c2ccc(N3CCCCC3)c(NC(C)=O)c2)c2ccccc12,,,"14.6 µM [rising, partial curve]"
CC1=CC(c2ccc(Cl)cc2)n2nc(NS(=O)(=O)c3ccc(C)cc3)nc2N1 (centres undefined),9.57%,,"2.31 µM [rising, single point]"
O=C(Nc1ccc(Oc2cccnc2)cc1)c1ccc([N+](=O)[O-])cc1,74.3%,"29.1 µM [rising, single point]","0.58 µM [rising, single point]"
COc1cccc(C(=O)c2c[nH]c(C(=O)NCCCN(C)C)c2)c1,34%,,
CC(C)c1onc(C(=O)NCc2cccs2)c1[N+](=O)[O-],-36.5%,"20.6 µM [falling, single point]","23.1 µM [falling, single point]"
Oc1ccc(Cl)cc1CNc1ccc(Br)cn1,-74.4%,"16.4 µM [falling, partial curve]","0.0651 µM [falling, full curve]"
CCCN(CCC)S(=O)(=O)c1ccc(C(=O)N2CCOCC2)cc1,6.06%,"1.3 µM [falling, full curve]",
Cc1nccc(-c2cccc(N/N=C(\C#N)C(=O)c3ccccc3)c2)n1,37.3%,"29.1 µM [rising, single point]","29.1 µM [rising, single point]"
O=C(CSc1ccccc1)Nc1ccccc1C(=O)O,18.5%,"0.731 µM [falling, full curve, poor fit]","16.4 µM [falling, partial curve]"
COc1cc2cc(C(=O)N3CCN(Cc4ccc5c(c4)OCO5)CC3)[nH]c2cc1OC,-6.12%,,"16.4 µM [rising, single point]"

SMILES,cell number change,AC50 [1],AC50 [2]
Cn1nc(C(F)(F)F)c(-c2ccc(Br)cc2)c1NC(=O)c1nccnc1C(=O)O,7.2%,,"29.1 µM [falling, single point]"
O=C(NCc1ccccn1)c1cccc(S(=O)(=O)Nc2ccccc2Cl)c1,0.13%,,
COc1ccc(NS(=O)(=O)c2ccc(C)c(C(=O)O)c2)cc1,,,"18.4 µM [falling, partial curve]"
CCc1ccccc1NC(=O)C1NC(=O)CC1c1ccccc1 (centres undefined),10.3%,"0.517 µM [rising, partial curve]",
CC(=O)c1ccc(Nc2nc(NCCO)nc(OC(C(F)(F)F)C(F)(F)F)n2)cc1,-32.2%,"29.1 µM [falling, single point]","29.1 µM [falling, single point]"
COC(=O)CCSCC(=O)Nc1ccc(S(=O)(=O)N2CCOCC2)cc1OC,-21.2%,"0.731 µM [falling, single point]","6.51 µM [rising, single point]"
CC1C/C(=C/c2ccco2)C(=O)/C(=C/c2ccco2)C1 (centres undefined),9.31%,,"32.6 µM [falling, partial curve]"
O=C(c1cccs1)N1CCCN(c2ncnc3scc(-c4ccccc4)c23)CC1,-7.27%,"1.84 µM [falling, partial curve]",
O=C(O)c1cc2n(n1)C(C(F)(F)F)CC(c1ccccc1)N2 (centres undefined),8.67%,,
COc1ccc(C=C(C(C)=O)C(C)=O)cc1OC,-35.6%,"8.2 µM [falling, partial curve]","9.2 µM [falling, partial curve, poor fit]"
Cc1ccc(S(=O)(=O)Oc2ccccc2/C=N/N=C(N)N)cc1,-59.6%,"29.1 µM [falling, partial curve, poor fit]","3.66 µM [falling, partial curve]"
COC(=O)c1sccc1NC(=O)Nc1ccc(C)cc1C,-54%,"20.6 µM [falling, single point]",
Cn1cnc([N+](=O)[O-])c1NCc1ccccc1,-14.2%,,
COc1ccc(C(=O)COC(=O)c2ccc(OC)c(OC)c2)cc1OC,-10.9%,,"0.58 µM [rising, single point]"
COc1cccc(CNc2nc3nc(C)cc(C)n3n2)c1,23.2%,,"14.6 µM [rising, partial curve]"
c1ccc(CCCN2CCN(c3ccccn3)CC2)cc1,15%,,"0.461 µM [rising, full curve, poor fit]"
COc1ccc(CN2CCNC(=O)C2CC(=O)N(C)CC2CCOCC2)cc1C (centres undefined),-1.38%,,"6.51 µM [falling, single point]"
COc1cccc(NC(=O)CCN2C(=O)c3cccc([N+](=O)[O-])c3C2=O)c1,18%,,"23.1 µM [falling, single point]"
COc1ccc(Cn2c(=O)sc3ccccc32)cc1,7.11%,,"3.66 µM [rising, partial curve, poor fit]"
O=C(NCCCN1CCOCC1)c1cc(-c2ccccc2F)no1,-2.95%,,"6.51 µM [rising, single point]"

SMILES,cell number change,AC50 [1],AC50 [2]
CC(C)C(=O)N(Cc1ccccc1)S(=O)(=O)c1ccc2c(c1)oc(=O)n2C,-16.5%,,"29.1 µM [falling, single point]"
CC(=O)Nc1nnc(Cc2ccccc2)s1,17.5%,,
CCc1ccc(NC(=O)C2=CC(c3ccc(OC)cc3)=NS(=O)(=O)N2C)cc1,,,"6.51 µM [falling, partial curve]"
COc1ccc(NC(=O)CSc2nnnn2C2CCCC2)c(OC)c1,-13.3%,,
Cc1ccc(/C=C/C(=O)Nn2cnnc2)cc1,-24.9%,"0.291 µM [falling, full curve, poor fit]","0.58 µM [falling, full curve]"
Cc1cc(C(=O)NC2CCCN(Cc3ccccc3F)C2)n[nH]1 (centres undefined),2.35%,,
FC(F)Oc1ccc(C2N=C(c3ccccc3)NO2)cc1 (centres undefined),12.1%,,
Cc1ccc(S(=O)(=O)N(C)C)cc1NC(=O)CN1C(=O)NC2(CCCCCC2)C1=O,-15.8%,"6.51 µM [rising, single point]",
CCOc1cccc(N2C(=O)CC(NCc3ccc(S(N)(=O)=O)cc3)C2=O)c1 (centres undefined),-0.517%,,"3.26 µM [falling, single point]"
O=C(Cc1cccc2ccccc12)Nc1cc(C(=O)O)cc(C(=O)O)c1,8.47%,,"29.1 µM [rising, single point]"
NS(=O)(=O)c1ccc(CNS(=O)(=O)c2cccc3nonc23)cc1,0.387%,,
CS(=O)(=O)c1ccc(C(=O)OCC(=O)c2ccc(Cl)s2)cc1,-62%,"29.1 µM [falling, single point]",
CCCNC(=O)c1cnc(Sc2ncc(C(F)(F)F)cc2Cl)n1C,-17.7%,,"6.51 µM [falling, single point]"
Cc1ccc(-c2cn3nc(C)c(C)nc3n2)cc1,,,"4.11 µM [rising, partial curve]"
COc1ccc(OC)c(-c2csc(NC(=O)Cc3cc(OC)c(OC)c(OC)c3)n2)c1,22.3%,,
CCOC(=O)CSc1nc2ccccc2n1CC(=O)N(C(C)C)C(C)C,-22.2%,,"20.6 µM [falling, partial curve]"
CN(CC(=O)Nc1cccc(F)c1)CC(=O)NC(c1ccccc1)c1ccccc1,-6.45%,,"0.13 µM [rising, full curve, poor fit]"
CCOc1ccc2nc(SC3CC(=O)N(c4ccc(OC)cc4)C3=O)sc2c1 (centres undefined),-22.9%,,"14.6 µM [falling, partial curve, poor fit]"
COC(=O)c1c(NC(=O)CN2CCN(Cc3ccc4c(c3)OCO4)CC2)sc(C)c1C,-72.8%,"14.6 µM [falling, partial curve]","20.6 µM [falling, partial curve]"
Cc1ccc(C)c2[nH]c(=O)c(CCNC(=O)c3ccc4c(c3)OCO4)cc12,137%,"0.58 µM [rising, full curve]","0.731 µM [rising, partial curve]"

# A stretch from further up, as a working copy:
SMILES,cell number change,AC50 [1],AC50 [2]
Cc1ccc(/C=C/C(=O)Nn2cnnc2)cc1,-24.9%,"0.291 µM [falling, full curve, poor fit]","0.58 µM [falling, full curve]"
Cc1cc(C(=O)NC2CCCN(Cc3ccccc3F)C2)n[nH]1 (centres undefined),2.35%,,
FC(F)Oc1ccc(C2N=C(c3ccccc3)NO2)cc1 (centres undefined),12.1%,,
